Laboratory results taken from the supplement of paper PMC3334620.
Over roughly 33,000 sequences, “E-score (-0.5 to 0.5)” has its median near -0.0034; the highest 2% begin near 0.25. This is one part of the list.

Biological target: T1, Yap3 (UniProt P38749)
T1 sequence: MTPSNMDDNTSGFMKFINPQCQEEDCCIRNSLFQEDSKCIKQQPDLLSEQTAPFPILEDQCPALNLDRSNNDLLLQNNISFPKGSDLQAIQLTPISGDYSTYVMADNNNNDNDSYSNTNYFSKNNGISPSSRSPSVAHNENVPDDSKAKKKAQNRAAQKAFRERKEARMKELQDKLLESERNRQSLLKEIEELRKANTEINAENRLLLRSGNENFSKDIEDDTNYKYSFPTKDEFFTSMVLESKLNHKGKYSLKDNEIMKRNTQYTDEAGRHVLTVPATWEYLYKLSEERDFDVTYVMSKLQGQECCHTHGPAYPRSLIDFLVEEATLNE
Test: PBM E-score (8-mer binding enrichment) (E-score (-0.5 to 0.5)); higher = stronger / more preferred TF binding
Conditions: protein concentration: 100 nM; construct: GST-full length
Method in brief: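 PURExpress in vitro transcription/translation supplied GST-tagged yeast transcription factors, either full-length or DNA-binding domain. Applied at about 100-200 nM to universal all-10-mer Agilent arrays double-stranded by primer extension, the bound protein was detected with fluorescent anti-GST. E-scores, modified Wilcoxon-Mann-Whitney statistics, were given by the Universal PBM Analysis Suite to ungapped eight-base words pooled with their reverse complements after masliner normalisation.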

| Sequence | PBM E-score |
| --- | --- |
| AAGTATTG | 0.11 |
| CCCAGTTC | -0.0993 |
| GGAGCCGA | -0.265 |
| GTGTTTGA | 0.204 |
| ACACTGAT | 0.0678 |
| AGGAGATC | -0.0498 |
| AGCCTTAA | -0.0527 |
| AAGGGTAC | -0.0636 |
| AACAAGTG | 0.00726 |
| GTGGAGCA | -0.179 |
| AAGCATTG | 0.00051 |
| GAACGGAC | -0.0867 |
| CGACCCAC | -0.219 |
| AGGAAGCC | -0.0635 |
| AATCTTCA | 0.168 |
| CCACGTAC | -0.105 |
| CAGCGAGA | -0.0685 |
| ACGTGAAG | 0.0589 |
| ATGAGCAC | -0.11 |
| CGGGGAAG | -0.214 |
| AGCTATAA | 0.0858 |
| AAAGAAAC | 0.0615 |
| ATTCTGGC | -0.121 |
| GATCCAGC | -0.0342 |
| AAAAATCC | 0.136 |

| Sequence | PBM E-score |
| --- | --- |
| CCATGATC | -0.121 |
| ATCCACCC | -0.00023 |
| TCAGTGAA | 0.0905 |
| ACCTGGCG | -0.211 |
| GCTAGGGA | -0.055 |
| GGCCTAAC | -0.0545 |
| CAACTGCC | 0.0195 |
| CTAAAGAC | -0.0437 |
| CCAAGACC | -0.144 |
| CTTTTTCA | 0.224 |
| ATCGTTCA | 0.129 |
| AGATATAA | 0.211 |
| AACCTATT | 0.0533 |
| AGGGAACG | -0.134 |
| ACTGATTG | -0.0496 |
| CCCTAAGA | -0.0841 |
| AGCTCGGG | -0.195 |
| GTTAGAAC | 0.0907 |
| GAGTAAAC | -0.00262 |
| AATGCTTC | 0.0674 |
| AGTACCAG | 0.0195 |
| AGTCTGTG | -0.215 |
| GGACGTGA | -0.0912 |
| ACCTCTGC | -0.127 |
| AATCAGTA | 0.0561 |

| Sequence | PBM E-score |
| --- | --- |
| GCGATGTA | 0.0567 |
| CGGGCATA | -0.0686 |
| AAGCTGCG | -0.0977 |
| CACTACAC | -0.0713 |
| TAACCGGA | 0.00585 |
| CTTTGGCC | -0.00142 |
| CGTTTGGA | -0.123 |
| TGATGTAA | 0.145 |
| ACCTTGAT | -0.0234 |
| GTGGTTCA | 0.191 |
| TCAACCAA | 0.071 |
| AATGAGAC | -0.0964 |
| GCGTCTCA | -0.0527 |
| AACAGGGC | 0.0684 |
| ACCGCCCA | -0.208 |
| AAGAGACA | 0.191 |
| AATGTGGG | 0.194 |
| ACTGGCCC | -0.0634 |
| CCAGGGGG | -0.411 |
| CCGGGGTA | -0.165 |
| GCGAACAA | 0.229 |
| CTCAAATC | 0.0664 |
| CCACGGCC | -0.235 |
| AACCAAAG | 0.146 |
| CTTTTTTA | 0.147 |

| Sequence | PBM E-score |
| --- | --- |
| CAACATAG | 0.144 |
| AGCATTCC | 0.0235 |
| CAAACCTA | 0.181 |
| ATTATGCG | 0.297 |
| ATAGGATC | 0.0479 |
| TGATATCA | 0.109 |
| CTATCACA | 0.12 |
| GCTTACCA | 0.182 |
| ACTGTGAG | 0.0462 |
| ACCTACTA | 0.0411 |
| TTACCGAA | 0.202 |
| ACGCATCG | 0.0328 |
| GTGATCTA | 0.0493 |
| CATACGTA | 0.156 |
| ACCACATA | 0.184 |
| GGGCATAA | 0.0486 |
| ACTCTTGA | -0.137 |
| TCAATTAA | 0.143 |
| ATAACTCA | 0.115 |
| CTCTTTAA | -0.0493 |
| GAACGTAC | -0.0517 |
| CGTTGGGC | -0.108 |
| GAACTCTA | -0.0396 |
| GGAGCGAC | -0.113 |
| CCAAAAAA | 0.177 |

| Sequence | PBM E-score |
| --- | --- |
| GCTCCCCC | -0.41 |
| AGGCTGAT | -0.0918 |
| CGGCATAC | -0.0416 |
| AAAAACGT | 0.137 |
| AGGCTTAC | 0.00475 |
| ATTACACG | 0.0795 |
| AACAAATA | 0.25 |
| CACACGAC | -0.0959 |
| AAGTTGTG | 0.216 |
| TAAACGCA | 0.113 |
| AGATGAAT | 0.069 |
| AGGGTAAG | 0.0161 |
| GCTAGGTA | -0.00222 |
| TCCCACGA | -0.0193 |
| CCGGACTA | 0.0299 |
| AGTATTGC | 0.0437 |
| CTCTGCGC | -0.0784 |
| GGTACAAC | 0.0551 |
| CTAGCCTA | -0.122 |
| CCTGACGA | 0.03 |
| CGCCCTTC | -0.232 |
| TAGCGTAA | 0.237 |
| AGGACGGG | -0.293 |
| TTCGGAAA | 0.13 |
| CAACCAAC | -0.074 |

Rewritten with tabs: part of the list above.
Sequence	PBM E-score
ACCTTGAT	-0.0234
GTGGTTCA	0.191
TCAACCAA	0.071
AATGAGAC	-0.0964
GCGTCTCA	-0.0527
AACAGGGC	0.0684
ACCGCCCA	-0.208
AAGAGACA	0.191
AATGTGGG	0.194
ACTGGCCC	-0.0634
CCAGGGGG	-0.411
CCGGGGTA	-0.165
GCGAACAA	0.229
CTCAAATC	0.0664
CCACGGCC	-0.235
AACCAAAG	0.146
CTTTTTTA	0.147
CAACATAG	0.144
AGCATTCC	0.0235
CAAACCTA	0.181
ATTATGCG	0.297
ATAGGATC	0.0479
TGATATCA	0.109
CTATCACA	0.12
GCTTACCA	0.182
ACTGTGAG	0.0462
ACCTACTA	0.0411
TTACCGAA	0.202
ACGCATCG	0.0328
GTGATCTA	0.0493
CATACGTA	0.156
ACCACATA	0.184
GGGCATAA	0.0486
ACTCTTGA	-0.137
TCAATTAA	0.143
ATAACTCA	0.115

Part of the list above, as labelled records.
AAAAACGT
  PBM E-score = 0.137
ATTACACG
  PBM E-score = 0.0795
TAAACGCA
  PBM E-score = 0.113
TCCCACGA
  PBM E-score = -0.0193

(list continues)

| Sequence | PBM E-score |
| --- | --- |
| AGCCTCCA | -0.245 |
| ATTAGATA | 0.178 |
| GAATTTCA | 0.0784 |
| CTCATTGC | 0.0306 |
| CCCTCTCG | -0.246 |
| CCAGGCAC | -0.17 |
| AGTGCCGA | -0.05 |
| GAGATAGC | -0.223 |
| GAACTTCA | 0.0514 |
| GGTGTCAA | -0.0108 |
| GCTAAAAC | 0.0705 |
| CGCCTCAC | -0.0806 |
| CAGAGTTC | -0.167 |
| CCCGCTAG | -0.135 |
| CAAATGCG | 0.134 |
| ATTGAACC | 0.1 |
| AATATCCC | 0.0746 |
| ATTAGGGC | -0.0372 |
| AACGCTGT | 0.0505 |
| AGCCGCAC | -0.111 |
| CATCGTTC | 0.0252 |
| AACGTCAG | -0.161 |
| ACATCTAC | 0.126 |
| GGGTTCGA | -0.0252 |
| TGAGGGCA | -0.0975 |

| Sequence | PBM E-score |
| --- | --- |
| GGGTCAAC | -0.0671 |
| GAAGGAAA | -0.00387 |
| GCAGTTAA | 0.0944 |
| ATTCCTTG | -0.113 |
| TCCTACCA | -0.175 |
| TGCTACAA | 0.0484 |
| AACCACTT | 0.0563 |
| AGCTTCCC | -0.191 |
| CTCCTACA | 0.0315 |
| CCGGATTC | 0.0756 |
| CATACAAC | 0.141 |
| AACCTGGA | -0.0762 |
| CCCCTCAG | -0.24 |
| ATTCGCGG | 0.158 |
| ACATCTCC | 0.0357 |
| ATGCTCAC | -0.0747 |
| CCTTCGCC | -0.324 |
| CAATTTAG | 0.106 |
| TCTCATAA | 0.0375 |
| CGGGTCGC | -0.149 |
| TAGGTAAA | -0.0801 |
| TGTAGAAA | 0.0253 |
